Experimental data published in the supplement of paper PMC10849652.
Some of the results follow.

Amino acid sequences for entries named in this document (tags omitted). A change or cut given only in a name is not applied to a line headed by its entry.
UniProt Q96IZ7: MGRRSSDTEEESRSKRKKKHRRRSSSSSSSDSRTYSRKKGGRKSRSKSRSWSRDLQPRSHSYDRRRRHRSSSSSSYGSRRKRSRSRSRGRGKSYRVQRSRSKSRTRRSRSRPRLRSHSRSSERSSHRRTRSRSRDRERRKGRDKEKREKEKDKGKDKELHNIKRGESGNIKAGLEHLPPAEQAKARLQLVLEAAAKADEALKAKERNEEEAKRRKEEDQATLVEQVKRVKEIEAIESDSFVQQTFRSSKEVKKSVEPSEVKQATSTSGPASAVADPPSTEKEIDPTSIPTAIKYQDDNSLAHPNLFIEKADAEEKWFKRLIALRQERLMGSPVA
UniProt P04843: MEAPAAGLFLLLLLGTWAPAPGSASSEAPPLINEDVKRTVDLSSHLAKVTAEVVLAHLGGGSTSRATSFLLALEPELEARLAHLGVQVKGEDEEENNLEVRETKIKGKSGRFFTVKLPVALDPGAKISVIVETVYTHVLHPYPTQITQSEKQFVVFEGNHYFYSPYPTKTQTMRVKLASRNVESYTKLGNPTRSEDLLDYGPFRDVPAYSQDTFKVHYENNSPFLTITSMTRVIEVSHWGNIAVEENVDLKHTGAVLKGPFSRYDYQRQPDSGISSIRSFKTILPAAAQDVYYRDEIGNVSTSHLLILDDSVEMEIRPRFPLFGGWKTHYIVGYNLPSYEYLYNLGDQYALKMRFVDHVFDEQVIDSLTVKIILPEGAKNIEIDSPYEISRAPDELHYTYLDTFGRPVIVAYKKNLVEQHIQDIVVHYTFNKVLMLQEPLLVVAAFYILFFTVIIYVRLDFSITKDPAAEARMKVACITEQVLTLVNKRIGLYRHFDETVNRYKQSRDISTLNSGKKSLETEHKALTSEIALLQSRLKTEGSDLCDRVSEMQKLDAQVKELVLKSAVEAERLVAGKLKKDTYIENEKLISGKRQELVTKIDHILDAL
UniProt Q92766: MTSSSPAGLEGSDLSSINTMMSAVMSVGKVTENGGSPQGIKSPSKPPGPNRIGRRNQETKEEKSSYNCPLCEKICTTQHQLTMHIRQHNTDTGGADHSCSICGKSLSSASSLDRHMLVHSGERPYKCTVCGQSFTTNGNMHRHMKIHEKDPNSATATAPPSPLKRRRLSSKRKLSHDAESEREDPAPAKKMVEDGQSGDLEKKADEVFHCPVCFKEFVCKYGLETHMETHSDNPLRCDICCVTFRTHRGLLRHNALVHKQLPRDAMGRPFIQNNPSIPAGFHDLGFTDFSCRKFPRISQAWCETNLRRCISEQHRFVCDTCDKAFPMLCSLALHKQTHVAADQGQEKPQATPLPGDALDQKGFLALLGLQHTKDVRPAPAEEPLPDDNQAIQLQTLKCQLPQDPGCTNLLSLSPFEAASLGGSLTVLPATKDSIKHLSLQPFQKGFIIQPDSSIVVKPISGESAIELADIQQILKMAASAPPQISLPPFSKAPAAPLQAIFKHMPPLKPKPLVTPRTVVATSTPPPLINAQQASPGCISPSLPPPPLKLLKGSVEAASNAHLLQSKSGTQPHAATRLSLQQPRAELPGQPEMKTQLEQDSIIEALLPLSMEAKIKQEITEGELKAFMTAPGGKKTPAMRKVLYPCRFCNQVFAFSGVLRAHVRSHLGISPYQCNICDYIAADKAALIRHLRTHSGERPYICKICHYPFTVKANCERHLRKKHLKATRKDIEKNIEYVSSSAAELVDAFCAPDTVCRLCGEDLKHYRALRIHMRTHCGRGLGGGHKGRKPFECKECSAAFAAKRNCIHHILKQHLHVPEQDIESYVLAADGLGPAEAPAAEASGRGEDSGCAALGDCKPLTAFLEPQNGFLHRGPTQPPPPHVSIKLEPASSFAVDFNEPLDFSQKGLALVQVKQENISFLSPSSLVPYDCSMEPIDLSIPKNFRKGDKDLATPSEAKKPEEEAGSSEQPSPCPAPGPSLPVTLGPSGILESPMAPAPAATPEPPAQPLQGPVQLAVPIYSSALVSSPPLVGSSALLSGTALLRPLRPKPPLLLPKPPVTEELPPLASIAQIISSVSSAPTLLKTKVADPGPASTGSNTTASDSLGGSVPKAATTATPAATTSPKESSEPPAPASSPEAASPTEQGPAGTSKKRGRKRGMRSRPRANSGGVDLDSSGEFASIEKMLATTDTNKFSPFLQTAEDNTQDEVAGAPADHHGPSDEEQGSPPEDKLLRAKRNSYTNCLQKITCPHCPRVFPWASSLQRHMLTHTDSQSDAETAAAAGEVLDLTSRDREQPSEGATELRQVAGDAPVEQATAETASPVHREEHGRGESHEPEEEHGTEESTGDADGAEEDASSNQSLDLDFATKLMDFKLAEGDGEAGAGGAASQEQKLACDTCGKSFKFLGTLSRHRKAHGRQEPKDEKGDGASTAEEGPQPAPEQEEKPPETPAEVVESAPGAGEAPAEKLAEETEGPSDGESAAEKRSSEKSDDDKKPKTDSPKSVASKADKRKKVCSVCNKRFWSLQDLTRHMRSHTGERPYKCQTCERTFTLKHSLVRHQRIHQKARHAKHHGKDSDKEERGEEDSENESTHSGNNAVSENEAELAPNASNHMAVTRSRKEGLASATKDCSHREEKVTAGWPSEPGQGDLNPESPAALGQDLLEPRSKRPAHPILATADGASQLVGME
UniProt Q96P16: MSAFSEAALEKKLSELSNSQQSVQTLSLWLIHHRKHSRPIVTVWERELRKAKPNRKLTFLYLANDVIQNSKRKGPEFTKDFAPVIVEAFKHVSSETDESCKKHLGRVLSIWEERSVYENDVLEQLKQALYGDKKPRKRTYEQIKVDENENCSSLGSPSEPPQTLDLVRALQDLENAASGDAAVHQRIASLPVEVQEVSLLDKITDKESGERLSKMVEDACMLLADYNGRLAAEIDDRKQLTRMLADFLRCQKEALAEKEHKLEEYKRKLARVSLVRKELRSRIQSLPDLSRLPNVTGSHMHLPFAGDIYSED
UniProt Q15050: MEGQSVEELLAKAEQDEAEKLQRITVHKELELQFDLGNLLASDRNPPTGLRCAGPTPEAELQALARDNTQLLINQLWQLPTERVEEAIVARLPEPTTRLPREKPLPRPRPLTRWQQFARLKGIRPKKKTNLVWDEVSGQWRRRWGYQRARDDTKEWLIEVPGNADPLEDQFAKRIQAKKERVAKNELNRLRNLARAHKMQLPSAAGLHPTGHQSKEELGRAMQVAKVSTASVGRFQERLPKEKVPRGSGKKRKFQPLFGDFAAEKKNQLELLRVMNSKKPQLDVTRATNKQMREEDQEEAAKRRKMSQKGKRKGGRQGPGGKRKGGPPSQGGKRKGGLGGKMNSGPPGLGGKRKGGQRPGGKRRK
UniProt Q9NQC3: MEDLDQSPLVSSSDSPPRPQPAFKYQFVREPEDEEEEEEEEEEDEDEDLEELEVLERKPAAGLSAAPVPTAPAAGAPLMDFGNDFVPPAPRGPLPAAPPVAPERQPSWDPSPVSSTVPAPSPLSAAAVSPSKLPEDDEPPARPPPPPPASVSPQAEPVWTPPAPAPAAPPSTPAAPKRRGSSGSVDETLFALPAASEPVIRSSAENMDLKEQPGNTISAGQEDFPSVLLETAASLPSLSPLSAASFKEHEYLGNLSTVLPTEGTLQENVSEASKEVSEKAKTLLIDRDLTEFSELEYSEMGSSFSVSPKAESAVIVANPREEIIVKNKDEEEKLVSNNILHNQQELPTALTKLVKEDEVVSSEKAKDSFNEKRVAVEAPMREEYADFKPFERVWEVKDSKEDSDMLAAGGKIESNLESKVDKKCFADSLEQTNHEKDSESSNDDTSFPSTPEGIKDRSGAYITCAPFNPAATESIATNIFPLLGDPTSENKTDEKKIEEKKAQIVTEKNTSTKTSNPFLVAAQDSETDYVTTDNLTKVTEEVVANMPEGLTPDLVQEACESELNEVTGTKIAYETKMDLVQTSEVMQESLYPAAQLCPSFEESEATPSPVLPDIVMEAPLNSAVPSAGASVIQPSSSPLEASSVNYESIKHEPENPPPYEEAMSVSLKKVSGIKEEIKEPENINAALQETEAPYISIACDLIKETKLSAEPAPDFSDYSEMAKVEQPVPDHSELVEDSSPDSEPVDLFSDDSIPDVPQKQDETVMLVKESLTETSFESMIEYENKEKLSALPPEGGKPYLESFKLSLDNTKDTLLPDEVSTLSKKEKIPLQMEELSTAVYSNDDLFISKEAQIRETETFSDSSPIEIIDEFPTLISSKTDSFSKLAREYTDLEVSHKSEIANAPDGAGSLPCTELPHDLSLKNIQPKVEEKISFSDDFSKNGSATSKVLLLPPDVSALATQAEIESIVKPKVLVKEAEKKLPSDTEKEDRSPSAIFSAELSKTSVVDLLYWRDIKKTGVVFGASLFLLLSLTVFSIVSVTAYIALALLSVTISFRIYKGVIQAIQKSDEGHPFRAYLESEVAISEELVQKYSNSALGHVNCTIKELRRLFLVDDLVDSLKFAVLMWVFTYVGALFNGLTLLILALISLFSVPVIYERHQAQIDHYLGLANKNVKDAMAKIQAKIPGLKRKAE
UniProt Q9Y3I0: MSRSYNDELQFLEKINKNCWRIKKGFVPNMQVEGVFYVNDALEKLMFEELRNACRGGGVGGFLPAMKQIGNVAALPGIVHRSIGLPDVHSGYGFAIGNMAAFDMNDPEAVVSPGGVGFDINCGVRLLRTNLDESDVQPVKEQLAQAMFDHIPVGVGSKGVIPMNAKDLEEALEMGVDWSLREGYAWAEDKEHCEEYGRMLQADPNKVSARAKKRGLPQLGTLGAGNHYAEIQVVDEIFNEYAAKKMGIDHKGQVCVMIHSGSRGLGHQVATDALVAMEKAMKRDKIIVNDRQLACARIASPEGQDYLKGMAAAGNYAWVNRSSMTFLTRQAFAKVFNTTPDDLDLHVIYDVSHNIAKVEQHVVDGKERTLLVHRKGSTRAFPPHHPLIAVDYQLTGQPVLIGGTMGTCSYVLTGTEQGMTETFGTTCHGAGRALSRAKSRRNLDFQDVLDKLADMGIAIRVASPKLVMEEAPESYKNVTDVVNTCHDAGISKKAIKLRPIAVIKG
UniProt Q7L099: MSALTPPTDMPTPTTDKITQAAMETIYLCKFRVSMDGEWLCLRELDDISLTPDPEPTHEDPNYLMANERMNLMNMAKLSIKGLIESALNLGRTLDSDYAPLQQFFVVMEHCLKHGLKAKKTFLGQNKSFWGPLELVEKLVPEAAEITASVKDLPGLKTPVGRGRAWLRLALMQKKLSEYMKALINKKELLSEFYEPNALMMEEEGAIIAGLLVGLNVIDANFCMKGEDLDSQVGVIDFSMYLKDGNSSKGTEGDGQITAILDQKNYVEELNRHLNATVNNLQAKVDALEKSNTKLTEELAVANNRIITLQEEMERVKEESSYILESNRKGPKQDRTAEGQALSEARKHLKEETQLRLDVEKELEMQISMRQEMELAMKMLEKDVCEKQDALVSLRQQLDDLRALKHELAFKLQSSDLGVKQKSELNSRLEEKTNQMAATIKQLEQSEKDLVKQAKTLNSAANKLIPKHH
UniProt Q99584: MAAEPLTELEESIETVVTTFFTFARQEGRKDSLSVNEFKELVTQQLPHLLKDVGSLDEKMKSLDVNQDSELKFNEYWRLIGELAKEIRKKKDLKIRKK
UniProt P23921: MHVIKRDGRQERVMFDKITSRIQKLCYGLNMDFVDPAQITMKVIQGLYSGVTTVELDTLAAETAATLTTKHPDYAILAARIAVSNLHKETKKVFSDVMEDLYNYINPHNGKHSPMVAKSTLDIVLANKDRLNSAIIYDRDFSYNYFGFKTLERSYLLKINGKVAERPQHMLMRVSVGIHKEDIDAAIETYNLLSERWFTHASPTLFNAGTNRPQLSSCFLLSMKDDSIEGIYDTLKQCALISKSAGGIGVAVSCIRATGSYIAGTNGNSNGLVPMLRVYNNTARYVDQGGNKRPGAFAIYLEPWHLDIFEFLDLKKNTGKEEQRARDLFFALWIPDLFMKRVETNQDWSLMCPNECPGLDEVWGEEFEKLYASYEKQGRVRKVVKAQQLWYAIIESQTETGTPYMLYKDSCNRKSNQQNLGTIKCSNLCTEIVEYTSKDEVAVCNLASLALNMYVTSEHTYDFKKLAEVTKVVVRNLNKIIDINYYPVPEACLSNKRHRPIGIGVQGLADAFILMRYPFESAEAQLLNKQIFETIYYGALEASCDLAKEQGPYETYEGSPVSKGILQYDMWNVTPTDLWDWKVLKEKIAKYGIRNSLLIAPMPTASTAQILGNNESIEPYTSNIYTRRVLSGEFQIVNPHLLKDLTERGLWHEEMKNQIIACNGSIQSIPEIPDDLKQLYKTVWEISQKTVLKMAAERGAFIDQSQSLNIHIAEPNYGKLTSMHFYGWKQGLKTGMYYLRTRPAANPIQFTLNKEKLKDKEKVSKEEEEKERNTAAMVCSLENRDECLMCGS

How the values were obtained:
Assay in all cases: log2 fold change, soluble protein after heating vs DMSO (PISA); higher = thermal stabilisation; K562 lysate, 10 uM; active = over 0.2 and 3.5 SD of the protein, either way, in both replicates (recomputed)
[1] = compound: CCCS(=O)(=O)Nc1ccc(F)c(C(=O)c2c[nH]c3ncc(-c4ccc(Cl)cc4)cc23)c1F [vemurafenib]
In short: (§1)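 Pellets of K562 cells were dounce-homogenised in PBS pH 7.4 with 1 mM MgCl2, and the crude extract was held at 1 mg/mL protein for a 30 min treatment with 10 μM compound. Aliquots were heated for 3 min over 48°C-58°C and pooled before NP-40 was added to 0.5% at 4°C. The supernatant from 21,000xg for 90 min was quantified by TMTpro 16plex LC-MS/MS with channel sums equalised. Values are reported from duplicates as log-two fold change in thermal stability relative to solvent controls.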

[2] = compound: CCCS(=O)(=O)Nc1ccc(F)c(C(=O)c2c[nH]c3ncc(Cl)cc23)c1F
In short: as §1

[3] = compound: CCN(CCCOc1ccc2c(Nc3cc(CC(=O)Nc4cccc(F)c4)[nH]n3)ncnc2c1)CCOP(=O)(O)O [barasertib]
In short: as §1

[4] = compound: CC[C@@H]1C(=O)N(C)c2cnc(Nc3ccc(C(=O)NC4CCN(C)CC4)cc3OC)nc2N1C1CCCC1
In short: as §1

[5] = compound: CC[C@@H]1C(=O)N(C)c2cnc(Nc3ccc(C(=O)N[C@H]4CC[C@H](N5CCN(CC6CC6)CC5)CC4)cc3OC)nc2N1C(C)C [volasertib]
In short: as §1

[6] = compound: CCn1c(C(=O)N(C2CC2)C2CC2)cc2c3c(ncn3C)c(Nc3cc(C)n(C)n3)nc21
In short: as §1

[7] = compound: CCn1cc(-c2ccnc3[nH]c(-c4cccc(CN(C)C)c4)cc23)c(-c2ccc(NC(=O)N(C)C)cc2)n1
In short: as §1

[8] = compound: CN1CCC(CNc2ccc3ncc(-c4cccc(OC(F)(F)F)c4)n3n2)CC1
In short: as §1

[9] = compound: CN1CCN(CCOc2cc(OC3CCOCC3)c3c(Nc4c(Cl)ccc5c4OCO5)ncnc3c2)CC1 [saracatinib]
In short: as §1

[10] = compound: CN1CCN(c2nc(C3=C(c4c[nH]c5ccccc45)C(=O)NC3=O)c3ccccc3n2)CC1 [sotrastaurin]
In short: as §1

[11] = compound: CN1CC[C@H](c2c(O)cc(O)c3c(=O)cc(-c4ccccc4Cl)oc23)[C@H](O)C1 [alvocidib]
In short: as §1

[12] = compound: CN1CCc2c(c3ccccc3n2Cc2ccc(C(=O)NO)cc2)C1 [Tubastatin A]
In short: as §1

[13] = compound: CNC(=O)C1=CC=CC=C1NC2=NC(=NC=C2Cl)NC3=C(C=C(C=C3)N4CCOCC4)OC
In short: as §1

[14] = compound: CNC(=O)c1ccc(Nc2ncc(C(F)(F)F)c(NCc3nccnc3N(C)S(C)(=O)=O)n2)cc1 [defactinib]
In short: as §1

[15] = compound: CNc1nc(-c2ccc3c(N)n[nH]c3c2)cc(N2C[C@@H](C(=O)NC3CCCCC3)CC[C@H]2C)n1
In short: as §1

[16] = compound: COC(=O)N[C@@H](C)CNc1nccc(-c2cn(C(C)C)nc2-c2cc(Cl)cc(NS(C)(=O)=O)c2F)n1 [encorafenib]
In short: as §1

[17] = compound: COC(=O)[C@H](CCSC)NC(=O)C1=C(C=C(C=C1)NC[C@H](CS)N)C2=CC=CC=C2
In short: as §1

[18] = compound: COc1cc(Nc2ncc3c(n2)-c2ccc(Cl)cc2C(c2c(F)cccc2OC)=NC3)ccc1C(=O)O [alisertib]
In short: as §1

[19] = compound: COc1cc2nc(-c3cc(F)ccc3O)nc(N[C@@H]3CNC[C@H]3C(C)(C)O)c2cc1OC
In short: as §1

[20] = compound: COc1cc2ncnc(Nc3ccc(F)c(Cl)c3)c2cc1OCCCN1CCOCC1 [gefitinib]
In short: as §1

Target | log2 fold change [1] | log2 fold change [2] | log2 fold change [3] | log2 fold change [4] | log2 fold change [5] | log2 fold change [6] | log2 fold change [7] | log2 fold change [8] | log2 fold change [9] | log2 fold change [10] | log2 fold change [11] | log2 fold change [12] | log2 fold change [13] | log2 fold change [14] | log2 fold change [15] | log2 fold change [16] | log2 fold change [17] | log2 fold change [18] | log2 fold change [19] | log2 fold change [20]
RSRC1 (UniProt Q96IZ7) | inactive: -0.002 | inactive: 0.012 | inactive: -0.035 | inactive: -0.013 | inactive: 0.029 | inactive: -0.054 | inactive: 0.054 | inactive: 0.005 | inactive: -0.039 | inactive: -0.006 | inactive: -0.056 | inactive: 0.056 | inactive: 0.017 | inactive: -0.006 | inactive: 0.062 | inactive: 0.058 | inactive: -0.051 | inactive: 0.005 | inactive: 0 | inactive: -0.073
RPS3A (UniProt P61247) | inactive: -0.033 | inactive: 0 | inactive: -0.017 | inactive: -0.035 | inactive: -0.004 | inactive: 0.033 | inactive: 0.042 | inactive: -0.061 | inactive: 0.022 | inactive: 0.008 | inactive: 0.013 | inactive: 0.023 | inactive: 0.008 | inactive: -0.03 | inactive: -0.048 | inactive: -0.024 | inactive: -0.007 | inactive: 0.018 | inactive: -0.007 | inactive: -0.023
RPS18 (UniProt P62269) | inactive: 0.006 | inactive: 0.022 | inactive: -0.007 | inactive: -0.014 | inactive: 0.018 | inactive: 0.009 | active: -0.219 | inactive: 0.063 | inactive: 0.002 | inactive: 0 | inactive: -0.057 | inactive: 0.04 | inactive: -0.021 | inactive: 0.016 | inactive: 0.025 | inactive: -0.022 | inactive: 0.054 | inactive: 0.013 | inactive: 0.001 | inactive: -0.032
RPL4 (UniProt P36578) | inactive: -0.017 | inactive: 0.003 | inactive: -0.074 | inactive: 0.019 | inactive: -0.005 | inactive: 0.002 | inactive: 0.145 | inactive: -0.016 | inactive: -0.008 | inactive: 0.012 | inactive: 0.019 | inactive: 0.002 | inactive: -0.014 | inactive: 0.038 | inactive: 0.009 | inactive: 0.01 | inactive: -0.005 | inactive: -0.001 | inactive: -0.003 | inactive: -0.042
RPN1 (UniProt P04843) | inactive: 0.005 | inactive: -0.01 | inactive: 0.024 | inactive: 0.032 | inactive: -0.011 | inactive: 0.014 | inactive: -0.07 | inactive: 0.015 | inactive: -0.023 | inactive: -0.008 | inactive: -0.025 | inactive: 0.031 | inactive: -0.027 | inactive: 0.014 | inactive: 0.026 | inactive: 0.014 | inactive: -0.093 | inactive: 0.03 | inactive: -0.046 | inactive: -0.009
RREB1 isoform 2 (UniProt Q92766) | inactive: 0.044 | inactive: -0.056 | inactive: 0.049 | inactive: -0.046 | inactive: -0.092 | inactive: -0.045 | inactive: 0.018 | inactive: 0.013 | inactive: 0.041 | inactive: 0.017 | inactive: 0 | inactive: -0.017 | inactive: 0.067 | inactive: 0.152 | inactive: 0.135 | inactive: -0.056 | inactive: 0.114 | inactive: 0.248 | inactive: -0.077 | inactive: -0.241
RPS21 (UniProt P63220) | inactive: -0.02 | inactive: -0.026 | inactive: 0.021 | inactive: -0.039 | inactive: 0.025 | inactive: 0.015 | inactive: -0.036 | inactive: 0.009 | inactive: 0.005 | inactive: -0.033 | inactive: 0.002 | inactive: 0.05 | inactive: -0.01 | inactive: -0.007 | inactive: 0.014 | inactive: -0.018 | inactive: -0.047 | inactive: 0.018 | inactive: 0 | inactive: 0.008
RPRD1A (UniProt Q96P16) | inactive: -0.061 | inactive: 0.031 | inactive: 0.053 | inactive: -0.026 | inactive: -0.007 | inactive: 0.019 | inactive: 0 | inactive: -0.016 | inactive: -0.009 | inactive: -0.005 | inactive: -0.013 | inactive: -0.059 | inactive: 0.008 | inactive: 0.059 | inactive: 0.124 | inactive: 0.029 | inactive: 0.078 | inactive: 0.03 | inactive: 0.04 | inactive: -0.025
RRS1 (UniProt Q15050) | inactive: -0.016 | inactive: 0.031 | inactive: 0.01 | inactive: -0.078 | inactive: -0.035 | inactive: 0.006 | inactive: -0.135 | inactive: 0.022 | inactive: -0.005 | inactive: 0.008 | inactive: -0.013 | inactive: -0.06 | inactive: -0.008 | inactive: -0.047 | inactive: 0.092 | inactive: 0.039 | inactive: -0.005 | inactive: -0.031 | inactive: -0.012 | inactive: 0.002
RPS10 (UniProt P46783) | inactive: 0.023 | inactive: 0.002 | inactive: -0.014 | inactive: -0.002 | inactive: -0.031 | inactive: -0.005 | inactive: 0.026 | inactive: -0.037 | inactive: 0 | inactive: 0.005 | inactive: 0.01 | inactive: 0.009 | inactive: -0.032 | inactive: -0.006 | inactive: -0.007 | inactive: -0.008 | inactive: 0.047 | inactive: -0.022 | inactive: -0.008 | inactive: -0.039
RTN4 (UniProt Q9NQC3) | inactive: 0.039 | inactive: 0.022 | inactive: 0.005 | inactive: 0.037 | inactive: 0.043 | inactive: -0.043 | inactive: -0.169 | inactive: 0.108 | inactive: 0.053 | inactive: 0.039 | inactive: -0.052 | inactive: 0.022 | inactive: 0.011 | inactive: -0.012 | inactive: 0.062 | inactive: 0.033 | inactive: -0.014 | inactive: 0.007 | inactive: 0.018 | inactive: 0.05
RTCB (UniProt Q9Y3I0) | inactive: 0.003 | inactive: 0.018 | inactive: -0.023 | inactive: -0.027 | inactive: -0.028 | inactive: 0.028 | inactive: -0.049 | inactive: 0.029 | inactive: -0.009 | inactive: 0.016 | inactive: -0.003 | inactive: -0.041 | inactive: -0.022 | inactive: 0.01 | inactive: -0.051 | inactive: -0.035 | inactive: 0.057 | inactive: 0.008 | inactive: -0.009 | inactive: 0.008
RUFY3 isoform 3 (UniProt Q7L099) | inactive: -0.021 | inactive: 0.014 | inactive: 0.005 | inactive: 0.028 | inactive: -0.012 | inactive: -0.01 | inactive: -0.011 | inactive: 0.014 | inactive: -0.008 | inactive: 0.005 | inactive: -0.009 | inactive: -0.01 | inactive: 0.004 | inactive: -0.004 | inactive: -0.013 | inactive: 0.064 | inactive: -0.069 | inactive: 0.012 | inactive: 0.014 | inactive: -0.024
S100A13 (UniProt Q99584) | inactive: -0.001 | inactive: -0.03 | inactive: 0.056 | inactive: 0.038 | inactive: 0.04 | inactive: -0.013 | inactive: 0.16 | inactive: 0.041 | inactive: 0.031 | inactive: 0.014 | inactive: 0.006 | inactive: 0.055 | inactive: -0.039 | inactive: -0.006 | inactive: -0.05 | inactive: -0.025 | inactive: 0.008 | inactive: -0.001 | inactive: 0.018 | inactive: -0.014
RRM1 (UniProt P23921) | inactive: 0.023 | inactive: 0.018 | inactive: 0.011 | inactive: -0.065 | inactive: -0.063 | inactive: 0.003 | inactive: -0.045 | inactive: -0.031 | inactive: -0.02 | inactive: -0.016 | inactive: -0.004 | inactive: -0.098 | inactive: -0.007 | inactive: 0.022 | inactive: -0.03 | inactive: 0.005 | inactive: 0.098 | inactive: 0.007 | inactive: 0.007 | inactive: -0.006
RPRD1B (UniProt Q9NQG5) | inactive: 0.009 | inactive: -0.013 | inactive: -0.039 | inactive: -0.009 | inactive: -0.001 | inactive: 0.044 | inactive: -0.022 | inactive: 0.017 | inactive: 0.023 | inactive: 0.011 | inactive: -0.016 | inactive: -0.026 | inactive: -0.017 | inactive: 0.01 | inactive: 0.023 | inactive: 0.023 | inactive: -0.007 | inactive: 0.037 | inactive: -0.019 | inactive: 0.019

A second format for part of the listing above:
Target	log2 fold change [1]	log2 fold change [2]	log2 fold change [3]	log2 fold change [4]	log2 fold change [5]	log2 fold change [6]	log2 fold change [7]	log2 fold change [8]	log2 fold change [9]	log2 fold change [10]	log2 fold change [11]	log2 fold change [12]	log2 fold change [13]	log2 fold change [14]	log2 fold change [15]	log2 fold change [16]	log2 fold change [17]	log2 fold change [18]	log2 fold change [19]	log2 fold change [20]
RPS3A (UniProt P61247)	inactive: -0.033	inactive: 0	inactive: -0.017	inactive: -0.035	inactive: -0.004	inactive: 0.033	inactive: 0.042	inactive: -0.061	inactive: 0.022	inactive: 0.008	inactive: 0.013	inactive: 0.023	inactive: 0.008	inactive: -0.03	inactive: -0.048	inactive: -0.024	inactive: -0.007	inactive: 0.018	inactive: -0.007	inactive: -0.023
RPS18 (UniProt P62269)	inactive: 0.006	inactive: 0.022	inactive: -0.007	inactive: -0.014	inactive: 0.018	inactive: 0.009	active: -0.219	inactive: 0.063	inactive: 0.002	inactive: 0	inactive: -0.057	inactive: 0.04	inactive: -0.021	inactive: 0.016	inactive: 0.025	inactive: -0.022	inactive: 0.054	inactive: 0.013	inactive: 0.001	inactive: -0.032
